Assay results from patent US20240368263A1.
Substitutions are numbered along the chain they refer to. No constants are given. Whether binding was seen depends on the method and setting. Some results given as binding are weak or reduced against the parent protein; the word gives no strength. Values belong to the binder of their own block, whether it stands above or below them.

Tests used:
[1] = biological target: T1, TL1A (epitope binning studies) (UniProt O95150); assay: SPR array epitope binning, pre-mix
T1 sequence (looked up): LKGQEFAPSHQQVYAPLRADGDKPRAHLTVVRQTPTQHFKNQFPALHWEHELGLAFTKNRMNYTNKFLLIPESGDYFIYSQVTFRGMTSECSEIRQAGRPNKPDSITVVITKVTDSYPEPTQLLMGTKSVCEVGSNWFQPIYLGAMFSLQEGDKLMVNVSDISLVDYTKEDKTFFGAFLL

[2] = biological target: membrane-associated human TL1A on transfected HEK293 cells (human) (UniProt O95150); assay: flow cytometry, HEK293 cells expressing human TL1A
[3] = biological target: T2, human TL1A (Fitzgerald, Prod. #30R-AT070) (human) (UniProt O95150); assay: ELISA on antigen coated plates and ELISA capture of soluble biotinylated antigen
T2 sequence (biotinylated with EZ-Link Sulfo-NHS-LC-Biotin where used as soluble antigen, looked up): T1 sequence (looked up)

binding [1]: binds
B1: murine 5C3D11 monoclonal antibody (antibody, V domains shown)
VH: EVQLQQSGAELVKPGASVKLSCTASGFDIQDTYMHWVKQRPEQGLEWIGRIDPASGHTKYDPKFQVKATITTDTSSNTAYLQLSSLTSEDTAVYYCSRSGGLPDVWGAGTTVTVSS
VL: QIVLSQSPAILSASPGEKVTMTCRASSSVSYMYWYQQKPGSSPKPWIYATSNLASGVPDRFSGSGSGTSYSLTISRVEAEDAATYYCQQWSGNPRTFGGGTKLEIK

binding [2]: binds
binding [3]: binds
B2: clone 17L, IgG2 / kappa (antibody)
heavy: QVQLVQSGAEVKKPGASVKVSCKASGFDIQDTYMHWVRQAPGQGLEWMGRIDPASGHLKYDPKFQVRVTMTRDTSTSTVYMELSSLRSEDTAVYYCARSGGLPDMWGQGTTVTVSSASTKGPSVFPLAPCSRSTSESTAALGCLVKDYFPEPVTVSWNSGALTSGVHTFPAVLQSSGLYSLSSVVTVPSSNFGTQTYTCNVDHKPSNTKVDKTVERKCCVECPPCPAPPVAGPSVFLFPPKPKDTLMISRTPEVTCVVVDVSHEDPEVQFNWYVDGVEVHNAKTKPREEQFNSTFRVVSVLTVVHQDWLNGKEYKCKVSNKGLPAPIEKTISKTKGQPREPQVYTLPPSREEMTKNQVSLTCLVKGFYPSDIAVEWESNGQPENNYKTTPPMLDSDGSFFLYSKLTVDKSRWQQGNVFSCSVMHEALHNHYTQKSLSLSPGK
light: EIVLTQSPGTLSLSPGERATLSCRASSSVSYMYWYQQKPGQAPRLLIYATSNLASGIPDRFSGSGSGTDFTLTISRLEPEDFAVYYCQQWQGNPRTFGGGTKLEIKRTVAAPSVFIFPPSDEQLKSGTASVVCLLNNFYPREAKVQWKVDNALQSGNSQESVTEQDSKDSTYSLSSTLTLSKADYEKHKVYACEVTHQGLSSPVTKSFNRGEC

binding [2]: binds
binding [3]: binds
B3: clone 47, IgG2 / kappa (antibody)
heavy: B2 heavy with D52E, L58V, V66T, M105W
light: B2 light with Q91E

binding [2]: binds
binding [3]: binds
B4: clone 34, IgG2 / kappa (antibody)
heavy: B2 heavy with D52E, L58I, V66G, M105W
light: B2 light with Q91E

binding [3]: binds
B5: clone 53, IgG2 / kappa (antibody)
heavy: B2 heavy with D52E, V66E, M105K
light: B2 light with Q91E

binding [2]: binds
binding [3]: binds
B6: clone 53, modified IgG1 / kappa (antibody, V domains shown)
VH: QVQLVQSGAEVKKPGASVKVSCKASGFDIQDTYMHWVRQAPGQGLEWMGRIEPASGHLKYDPKFQERVTMTRDTSTSTVYMELSSLRSEDTAVYYCARSGGLPDKWGQGTTVTVSS
VL: EIVLTQSPGTLSLSPGERATLSCRASSSVSYMYWYQQKPGQAPRLLIYATSNLASGIPDRFSGSGSGTDFTLTISRLEPEDFAVYYCQQWEGNPRTFGGGTKLEIKR

binding [1]: binds
B7: 12835 (humanized 5C3D11) antibody, IgG format (antibody, V domains shown)
VH: B6 VH with V20L, E52D, L58T, E66V, R72T, A97S, K105V
VL: EIVLTQSPGTLSLSPGERVTMSCRASSSVSYMYWYQQKPGQAPRPWIYATSNLASGVPDRFSGSGSGTDYTLTISRLEPEDFAVYYCQQWSGNPRTFGGGTKLEIK

binding [1]: binds
B8: 1A9 anti-TL1A antibody (antibody, V domains shown)
VH: QIQLVQSGPELKKPGETVKISCKASGYTFTTYGMSWVKQAPGKGLKWMGWMNTYSGVTTYADDFKGRFAFSLETSASTAYMQIDNLKNEDTATYFCAREGYVFDDYYATDYWGQGTSVTVSS
VL: DVLMTQTPLSLPVSLGDQASISCRSSQNIVHSDGNTYLEWYLQKPGQSPKLLIYKVSNRFSGVPDRFSGSGSGTDFTLKISRVEAEDLGIYYCFQGSHVPLTFGAGTKLELK

binding [1]: binds
B9: 1681 anti-TL1A antibody (antibody, V domains shown)
VH: EVQLLESGGGLVQPGKSLRLSCAVSGFTFSTYGMNWVRQAPGKGLEWVSSISGTGRTTYHADSVQGRFTVSRDNSKNILYLQMNSLRADDTAVYFCTKERGDYYYGVFDYWGQGTLVTVSS
VL: DIQMTQSPSTLSASVGDRVTITCRASQTISSWLAWYQQTPEKAPKLLIYAASNLQSGVPSRFSGSGSGTEFTLTISSLQPDDFATYYCQQYHRSWTFGQGTKVEIT
